No constants are given. Whether binding was seen depends on the method and setting. A result given as binding can be weak or reduced; the word gives no strength. Tags and fused reporters may be left off the sequences shown.
Assays:
[1] = target: T1, MxiK, BACTH fusion (S. flexneri) (UniProt P0A227); experiment: two-hybrid; bacterial adenylate cyclase two-hybrid (BACTH) in cyaA- E. coli BTH101; T18 and T25 fused to N- or C-terminus, eight permutations; read on LB X-gal and MacConkey maltose plates, 30°C; positive if at least one permutation is positive
T1 sequence: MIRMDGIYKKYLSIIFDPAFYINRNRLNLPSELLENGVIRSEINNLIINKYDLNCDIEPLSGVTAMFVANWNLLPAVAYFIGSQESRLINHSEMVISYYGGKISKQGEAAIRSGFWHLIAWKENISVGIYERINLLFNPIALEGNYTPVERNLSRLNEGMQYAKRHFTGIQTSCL

[2] = target: T2, MxiN, BACTH fusion (S. flexneri) (UniProt Q6XVX6); experiment: as above
T2 sequence: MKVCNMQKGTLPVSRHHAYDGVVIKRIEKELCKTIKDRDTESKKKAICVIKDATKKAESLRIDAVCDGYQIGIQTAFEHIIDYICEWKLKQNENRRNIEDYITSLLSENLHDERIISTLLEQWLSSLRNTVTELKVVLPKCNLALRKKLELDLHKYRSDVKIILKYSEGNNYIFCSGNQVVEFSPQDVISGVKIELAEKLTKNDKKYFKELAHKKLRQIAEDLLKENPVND

| Substance | binding [1] | binding [2] |
| --- | --- | --- |
| Spa33^C (C-terminal domain of Spa33), BACTH fusion (S. flexneri) (domain or fragment) | no binding | no binding |
| Spa33^FL (full-length Spa33 lacking the internal translation start site), BACTH fusion (from UniProt P0A1K9) | binds | binds |

Reference: article PMC8211105
